These are yes or no findings as the source states them, for the method shown. Binding seen in cells or lysates may run through a third protein. For some assays here: A result given as binding can be weak or reduced; the word gives no strength. Tags and fused reporters may be left off the sequences shown.
Experiments:
[1] = biological target: GST-CT1 (GST fusion of the PC1 C-terminus); assay: pull-down; GST-CT1 or GST-CT1-R4227X as bait, FLAG-ARHGAP35 detected by blot; performed as previously described (ref. 26)
[2] = biological target: GST-CT1-R4227X (truncated PC1 C-terminus) (UniProt P98161); assay: as above

Chains of the proteins cited; added tags and fusions are not shown. Lines headed by an entry give the natural chain unless they say otherwise; changes in a name come on top.
UniProt P98161: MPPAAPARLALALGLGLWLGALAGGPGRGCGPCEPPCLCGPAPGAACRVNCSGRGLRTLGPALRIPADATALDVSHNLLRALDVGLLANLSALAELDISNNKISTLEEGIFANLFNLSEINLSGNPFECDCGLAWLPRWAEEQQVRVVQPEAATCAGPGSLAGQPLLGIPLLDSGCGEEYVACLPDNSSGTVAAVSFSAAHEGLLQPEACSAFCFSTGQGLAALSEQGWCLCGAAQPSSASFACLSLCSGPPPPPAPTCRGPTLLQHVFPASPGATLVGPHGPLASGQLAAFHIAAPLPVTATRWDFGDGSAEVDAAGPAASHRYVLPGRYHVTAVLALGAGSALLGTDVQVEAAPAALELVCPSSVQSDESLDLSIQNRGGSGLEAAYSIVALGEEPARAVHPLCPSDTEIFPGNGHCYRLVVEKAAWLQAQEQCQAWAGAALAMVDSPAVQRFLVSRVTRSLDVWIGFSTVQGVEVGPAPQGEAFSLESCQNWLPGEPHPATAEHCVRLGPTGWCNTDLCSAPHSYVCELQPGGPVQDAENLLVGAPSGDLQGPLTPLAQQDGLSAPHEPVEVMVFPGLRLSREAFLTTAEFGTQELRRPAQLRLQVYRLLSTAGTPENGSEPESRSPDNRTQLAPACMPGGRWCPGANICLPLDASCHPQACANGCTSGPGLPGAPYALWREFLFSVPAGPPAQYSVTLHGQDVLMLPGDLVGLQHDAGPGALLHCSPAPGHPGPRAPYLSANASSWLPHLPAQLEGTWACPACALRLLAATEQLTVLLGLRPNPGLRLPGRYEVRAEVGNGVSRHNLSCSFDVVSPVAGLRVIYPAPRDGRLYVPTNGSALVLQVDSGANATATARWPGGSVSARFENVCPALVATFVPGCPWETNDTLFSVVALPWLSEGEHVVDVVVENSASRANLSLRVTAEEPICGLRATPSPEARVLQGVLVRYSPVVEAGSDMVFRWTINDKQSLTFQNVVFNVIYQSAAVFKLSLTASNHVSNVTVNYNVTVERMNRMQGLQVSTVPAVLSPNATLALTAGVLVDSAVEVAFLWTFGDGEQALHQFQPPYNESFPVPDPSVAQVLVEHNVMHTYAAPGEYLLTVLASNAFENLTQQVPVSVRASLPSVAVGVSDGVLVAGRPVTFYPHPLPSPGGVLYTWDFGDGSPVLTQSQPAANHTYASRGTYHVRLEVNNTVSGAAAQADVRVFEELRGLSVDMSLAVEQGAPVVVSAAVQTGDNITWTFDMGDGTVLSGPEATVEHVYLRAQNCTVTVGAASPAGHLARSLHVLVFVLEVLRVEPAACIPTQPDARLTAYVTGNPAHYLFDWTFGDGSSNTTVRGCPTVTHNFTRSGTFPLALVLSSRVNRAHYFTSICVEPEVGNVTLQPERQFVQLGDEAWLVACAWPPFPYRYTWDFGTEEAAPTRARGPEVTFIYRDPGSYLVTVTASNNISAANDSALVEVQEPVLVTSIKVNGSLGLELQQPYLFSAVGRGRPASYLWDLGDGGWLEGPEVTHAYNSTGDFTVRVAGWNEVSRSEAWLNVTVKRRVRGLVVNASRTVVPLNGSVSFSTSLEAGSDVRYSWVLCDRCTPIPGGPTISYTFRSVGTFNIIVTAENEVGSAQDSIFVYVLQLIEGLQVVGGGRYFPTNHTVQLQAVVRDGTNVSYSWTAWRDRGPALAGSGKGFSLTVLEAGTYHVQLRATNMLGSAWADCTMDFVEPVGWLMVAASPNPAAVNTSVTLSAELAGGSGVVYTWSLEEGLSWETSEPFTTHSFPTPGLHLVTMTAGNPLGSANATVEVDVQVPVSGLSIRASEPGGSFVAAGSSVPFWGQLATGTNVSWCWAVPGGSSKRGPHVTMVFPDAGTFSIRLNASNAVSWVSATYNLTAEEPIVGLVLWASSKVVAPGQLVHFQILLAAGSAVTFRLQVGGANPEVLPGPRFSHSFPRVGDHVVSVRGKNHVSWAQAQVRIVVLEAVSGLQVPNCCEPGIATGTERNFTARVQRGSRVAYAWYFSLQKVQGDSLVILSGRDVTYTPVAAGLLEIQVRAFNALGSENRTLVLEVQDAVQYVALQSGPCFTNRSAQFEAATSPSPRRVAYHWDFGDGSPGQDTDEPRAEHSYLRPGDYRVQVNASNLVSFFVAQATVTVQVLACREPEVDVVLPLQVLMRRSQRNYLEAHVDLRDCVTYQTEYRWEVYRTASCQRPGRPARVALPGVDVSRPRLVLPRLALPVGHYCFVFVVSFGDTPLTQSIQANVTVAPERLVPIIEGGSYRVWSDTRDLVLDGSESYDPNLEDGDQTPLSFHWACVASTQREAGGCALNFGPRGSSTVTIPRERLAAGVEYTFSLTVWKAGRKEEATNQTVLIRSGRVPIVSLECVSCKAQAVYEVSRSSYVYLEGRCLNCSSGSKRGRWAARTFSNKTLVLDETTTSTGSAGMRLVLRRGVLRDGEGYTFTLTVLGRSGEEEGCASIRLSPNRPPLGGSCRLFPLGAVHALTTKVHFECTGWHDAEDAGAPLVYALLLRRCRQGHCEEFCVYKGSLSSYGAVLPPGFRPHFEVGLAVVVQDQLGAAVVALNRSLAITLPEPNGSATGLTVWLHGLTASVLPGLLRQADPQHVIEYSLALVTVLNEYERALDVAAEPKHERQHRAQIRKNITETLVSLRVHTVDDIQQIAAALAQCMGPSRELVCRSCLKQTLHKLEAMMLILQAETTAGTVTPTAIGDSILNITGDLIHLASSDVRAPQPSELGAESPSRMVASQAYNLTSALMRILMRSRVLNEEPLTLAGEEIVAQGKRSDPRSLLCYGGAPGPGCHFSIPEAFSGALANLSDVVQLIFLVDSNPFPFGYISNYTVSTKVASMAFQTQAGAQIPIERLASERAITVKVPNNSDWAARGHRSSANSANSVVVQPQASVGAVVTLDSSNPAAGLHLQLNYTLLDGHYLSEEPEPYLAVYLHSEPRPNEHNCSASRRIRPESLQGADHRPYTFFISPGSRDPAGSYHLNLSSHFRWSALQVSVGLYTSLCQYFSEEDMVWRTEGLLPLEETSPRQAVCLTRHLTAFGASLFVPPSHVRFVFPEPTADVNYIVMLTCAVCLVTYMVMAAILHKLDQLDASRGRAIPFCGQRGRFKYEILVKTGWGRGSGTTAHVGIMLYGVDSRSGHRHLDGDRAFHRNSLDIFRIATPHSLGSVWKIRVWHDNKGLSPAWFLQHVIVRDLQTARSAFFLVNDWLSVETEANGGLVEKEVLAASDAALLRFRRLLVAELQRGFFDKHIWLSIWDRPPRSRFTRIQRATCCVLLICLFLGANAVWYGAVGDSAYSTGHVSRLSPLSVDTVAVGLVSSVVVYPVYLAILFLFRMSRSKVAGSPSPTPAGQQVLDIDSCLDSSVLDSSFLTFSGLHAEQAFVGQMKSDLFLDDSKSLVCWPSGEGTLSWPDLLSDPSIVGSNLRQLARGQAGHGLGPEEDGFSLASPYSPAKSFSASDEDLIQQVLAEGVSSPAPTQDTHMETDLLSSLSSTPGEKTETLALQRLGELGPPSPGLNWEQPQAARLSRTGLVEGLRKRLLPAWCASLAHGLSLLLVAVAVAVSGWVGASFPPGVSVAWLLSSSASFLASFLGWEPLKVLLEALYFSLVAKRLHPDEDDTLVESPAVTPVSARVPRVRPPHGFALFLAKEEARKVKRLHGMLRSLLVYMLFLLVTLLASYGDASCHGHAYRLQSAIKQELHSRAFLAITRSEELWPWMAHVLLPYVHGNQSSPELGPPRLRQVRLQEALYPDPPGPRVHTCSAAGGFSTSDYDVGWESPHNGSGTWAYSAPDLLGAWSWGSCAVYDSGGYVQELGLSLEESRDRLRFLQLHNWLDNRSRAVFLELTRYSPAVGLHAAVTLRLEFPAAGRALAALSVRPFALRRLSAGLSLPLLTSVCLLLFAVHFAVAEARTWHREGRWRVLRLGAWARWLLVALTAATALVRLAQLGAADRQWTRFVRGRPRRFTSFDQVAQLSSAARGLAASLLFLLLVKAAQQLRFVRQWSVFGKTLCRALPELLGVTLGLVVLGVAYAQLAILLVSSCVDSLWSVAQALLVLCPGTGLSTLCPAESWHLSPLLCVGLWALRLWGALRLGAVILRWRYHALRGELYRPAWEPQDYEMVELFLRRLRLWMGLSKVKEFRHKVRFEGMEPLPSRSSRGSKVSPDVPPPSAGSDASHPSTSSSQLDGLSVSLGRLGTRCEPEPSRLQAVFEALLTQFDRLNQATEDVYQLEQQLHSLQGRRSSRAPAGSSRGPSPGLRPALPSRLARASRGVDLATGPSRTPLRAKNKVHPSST

binding [1]: binds
binding [2]: no binding
B1: full-length FLAG-ARHGAP35 (protein, UniProt Q9NRY4 1-1499)
chain: MMMARKQDVRIPTYNISVVGLSGTEKEKGQCGIGKSCLCNRFVRPSADEFHLDHTSVLSTSDFGGRVVNNDHFLYWGEVSRSLEDCVECKMHIVEQTEFIDDQTFQPHRSTALQPYIKRAAATKLASAEKLMYFCTDQLGLEQDFEQKQMPDGKLLVDGFLLGIDVSRGMNRNFDDQLKFVSNLYNQLAKTKKPIVVVLTKCDEGVERYIRDAHTFALSKKNLQVVETSARSNVNVDLAFSTLVQLIDKSRGKTKIIPYFEALKQQSQQIATAKDKYEWLVSRIVKNHNENWLSVSRKMQASPEYQDYVYLEGTQKAKKLFLQHIHRLKHEHIERRRKLYLAALPLAFEALIPNLDEIDHLSCIKAKKLLETKPEFLKWFVVLEETPWDATSHIDNMENERIPFDLMDTVPAEQLYEAHLEKLRNERKRVEMRRAFKENLETSPFITPGKPWEEARSFIMNEDFYQWLEESVYMDIYGKHQKQIIDKAKEEFQELLLEYSELFYELELDAKPSKEKMGVIQDVLGEEQRFKALQKLQAERDALILKHIHFVYHPTKETCPSCPACVDAKIEHLISSRFIRPSDRNQKNSLSDPNIDRINLVILGKDGLARELANEIRALCTNDDKYVIDGKMYELSLRPIEGNVRLPVNSFQTPTFQPHGCLCLYNSKESLSYVVESIEKSRESTLGRRDNHLVHLPLTLILVNKRGDTSGETLHSLIQQGQQIASKLQCVFLDPASAGIGYGRNINEKQISQVLKGLLDSKRNLNLVSSTASIKDLADVDLRIVMCLMCGDPFSADDILFPVLQSQTCKSSHCGSNNSVLLELPIGLHKKRIELSVLSYHSSFSIRKSRLVHGYIVFYSAKRKASLAMLRAFLCEVQDIIPIQLVALTDGAVDVLDNDLSREQLTEGEEIAQEIDGRFTSIPCSQPQHKLEIFHPFFKDVVEKKNIIEATHMYDNAAEACSTTEEVFNSPRAGSPLCNSNLQDSEEDIEPSYSLFREDTSLPSLSKDHSKLSMELEGNDGLSFIMSNFESKLNNKVPPPVKPKPPVHFEITKGDLSYLDQGHRDGQRKSVSSSPWLPQDGFDPSDYAEPMDAVVKPRNEEENIYSVPHDSTQGKIITIRNINKAQSNGSGNGSDSEMDTSSLERGRKVSIVSKPVLYRTRCTRLGRFASYRTSFSVGSDDELGPIRKKEEDQASQGYKGDNAVIPYETDEDPRRRNILRSLRRNTKKPKPKPRPSITKATWESNYFGVPLTTVVTPEKPIPIFIERCIEYIEATGLSTEGIYRVSGNKSEMESLQRQFDQDHNLDLAEKDFTVNTVAGAMKSFFSELPDPLVPYNMQIDLVEAHKINDREQKLHALKEVLKKFPKENHEVFKYVISHLNKVSHNNKVNLMTSENLSICFWPTLMRPDFSTMDALTATRTYQTIIELFIQQCPFFFYNRPITEPPGARPSSPSAVASTVPFLTSTPVTSQPSPPQSPPPTPQSPMQPLLPSQLQAEHTL

From article PMC7455122
